PMC5915175
Construct, isoform or probe ends are uncertain for at least one entry. Where cells or extracts were used, other partners may take part. At least one verdict rests on a figure or table, not on a statement of the authors. Protein sequences can lack the tags named with them.

Target: T1, IRF4 WT (Homo sapiens) (UniProt Q15306)
T1 sequence (looked up): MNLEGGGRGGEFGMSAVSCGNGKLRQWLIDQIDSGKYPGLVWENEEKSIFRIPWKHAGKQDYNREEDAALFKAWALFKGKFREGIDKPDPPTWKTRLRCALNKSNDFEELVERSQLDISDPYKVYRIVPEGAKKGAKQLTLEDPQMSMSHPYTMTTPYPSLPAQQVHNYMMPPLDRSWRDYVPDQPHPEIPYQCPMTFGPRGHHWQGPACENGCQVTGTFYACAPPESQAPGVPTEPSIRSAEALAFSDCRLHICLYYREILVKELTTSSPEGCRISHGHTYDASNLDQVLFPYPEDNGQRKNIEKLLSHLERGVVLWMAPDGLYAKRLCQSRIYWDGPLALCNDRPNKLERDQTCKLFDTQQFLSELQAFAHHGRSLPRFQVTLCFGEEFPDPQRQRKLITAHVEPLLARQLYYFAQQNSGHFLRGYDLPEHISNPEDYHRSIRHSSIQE
Assay: EMSA, supershift
Details: anti-IRF4 supershift; 10 ug HEK293T nuclear lysate (nuclear lysis buffer 20 mM Hepes pH 7.9, 0.4 M NaCl, 1 mM EDTA, 1 mM EGTA, 25% glycerol) with 32P probe, 30 min on ice; protein in a lysate after overexpression; residues 1-451; label: 32P (dATP, Klenow fill-in)

“GATCGGGAAAGGGAAACCGAAACTGAA (double strand) [ISRE probe (ISG15 promoter-based)]”: binds.
